Library screening results

Mtb growth Cornell: 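Whole-cell assay for inhibitors of Mycobacterium tuberculosis growth, labelled Cornell in the record; the read-out is not stated. The concentration is filed as 10 mM, unlikely as a test dose, so the dose is not known. The record gives no direction; compounds strong in two other growth screens of this library score well above the rest, so higher reads as stronger inhibition. About 53,000 compounds were tested under these conditions; 1.7% (about 900) showed 50% or more at least once.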
Mtb heat-shock: 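Assay on Mycobacterium tuberculosis, filed only as a heat shock assay from Cornell; the read-out is not stated. The concentration is filed as 10 mM, unlikely as a test dose, so the dose is not known. The record gives no direction; compounds that gave an IC50 in retests scored well above the rest, so higher reads as stronger inhibition. About 69,000 compounds were tested under these conditions; 1.4% (about 930) showed 50% or more at least once.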

The filed quantity is “Percent Effect” (%).
The record does not define 0% and 100%; most values in the screen are far below 50% and negative numbers occur (in some assays of this library far below -100).
This is an unselected part of the compounds tested.
A dash means the value is not listed here; it may have been measured.

- COc1ccc(C2CCCN2S(=O)(=O)N(C)C)cc1 (stereo not drawn) : Mtb growth Cornell: -9.641%; Mtb heat-shock: -0.3722%
- Cc1nnc(N2CCC(CS(N)(=O)=O)CC2)c(C#N)c1C : Mtb heat-shock: -6.552%
- CN(CCCNC(=O)c1ccc(C#N)cc1)CC(F)(F)F : Mtb growth Cornell: 5.867%; Mtb heat-shock: -1.633%
- CCN(CC)C(=O)C1CCN(c2ccc(Cl)cc2C#N)CC1 : Mtb growth Cornell: -1.271%; Mtb heat-shock: -24.67%
- CCN1CCC2(CCC1=O)CN(c1ccnc(SC)n1)CCN2C (stereo not drawn) : Mtb growth Cornell: 11.43%; Mtb heat-shock: 8.632%
- Cc1ccc(N2CCN(c3ccccc3C)CC2C)nn1 (stereo not drawn) : Mtb growth Cornell: 29.54%; Mtb heat-shock: 2.644%
- Cc1nc(CN2C(=O)CCC23CCN(Cc2cccn2C)CC3)cs1.O=C(O)C(F)(F)F.O=C(O)C(F)(F)F : Mtb growth Cornell: 14.09%; Mtb heat-shock: -21.2%
- Cc1ccccc1NC(=O)N1CCN(Cc2noc(C3CC3)n2)CC1 : Mtb growth Cornell: -21.99%; Mtb heat-shock: 2.328%
- COc1ccc(CNC(=O)Nc2cccnc2N2CCCC2)cc1 : Mtb heat-shock: -2.108%
- O=C(CNc1ccc(OC2CCOC2)cc1)NCc1ccc(F)cc1 (stereo not drawn) : Mtb growth Cornell: 70.37%; Mtb heat-shock: 1.715%
- Cc1noc(C(C)N(C)CC(=O)NCCc2ccc(Cl)cc2)n1 (stereo not drawn) : Mtb growth Cornell: -1.89%; Mtb heat-shock: -20.29%
- O=C(CSc1ccccc1)N1CCc2c(ncnc2N2CCOCC2)C1 : Mtb growth Cornell: 7.825%; Mtb heat-shock: -34.91%
- CCc1nccn1C1CCCN(C(=O)CCc2nc(C(C)C)no2)C1 (stereo not drawn) : Mtb heat-shock: -14.41%
- Cc1cc(C(=O)N2CCCCC2c2nc3cc(F)ccc3[nH]2)no1 (stereo not drawn) : Mtb growth Cornell: -32.12%; Mtb heat-shock: -3.421%
- CO[C@H]1CO[C@@]2(CCCN(C(=O)C3CC=CC3)C2)C1 : Mtb growth Cornell: 3.483%; Mtb heat-shock: 0.467%
- CNc1cncc(C2CCCN2Cc2ccnc(C)n2)n1 (stereo not drawn) : Mtb heat-shock: -20.32%
- O=S1(=O)CCC(N(Cc2nc(-c3ccccn3)no2)Cc2cccs2)C1 (stereo not drawn) : Mtb growth Cornell: 2.663%; Mtb heat-shock: -6.844%
- CC(Cn1cccn1)NCc1cnc(N2CCCC2)nc1 (stereo not drawn) : Mtb growth Cornell: 3.481%; Mtb heat-shock: -7.534%
- O=C1COc2cc(C(=O)NS(=O)(=O)c3ccc(F)cc3F)ccc2N1 : Mtb growth Cornell: 4.876%; Mtb heat-shock: 6.223%
- CN(C)C(=O)N1Cc2nnn(C)c2C(COCc2cccnc2)C1.O=C(O)C(F)(F)F (stereo not drawn) : Mtb growth Cornell: -0.7897%; Mtb heat-shock: -36.13%
- c1ccc(-c2ncc(CN3CCC4(CCNCC4)C3)cn2)cc1 : Mtb growth Cornell: -3.347%; Mtb heat-shock: -26.91%
- Cc1noc(CCCC(=O)NCC(c2ccco2)N2CCCC2)n1 (stereo not drawn) : Mtb heat-shock: -32.44%
- CNC(=O)CN1CCOCC2(CCCN(Cc3cccnc3)C2)C1.O=C(O)C(F)(F)F.O=C(O)C(F)(F)F.O=C(O)C(F)(F)F (stereo not drawn) : Mtb growth Cornell: 11.32%; Mtb heat-shock: 2.189%
- O=C(NCC1CC1)C1=NOC2(CCN(S(=O)(=O)Cc3ccccc3)C2)C1 (stereo not drawn) : Mtb growth Cornell: 1.065%; Mtb heat-shock: -15.27%
- Cc1cc(-c2ccncc2)ccc1OCC(N)=O : Mtb heat-shock: 4.471%
- Cc1ccc(S(=O)(=O)NCC2CNCCOC2)cc1Cl (stereo not drawn) : Mtb growth Cornell: -58.08%; Mtb heat-shock: -2.292%
- CCC[C@@H]1CN(Cc2nnc(-c3cccc(F)c3)o2)C[C@H]1NC(C)=O : Mtb heat-shock: -34.29%
- Cc1csc2ncnc(N3CCC(Cn4cc(C(C)(C)N)nn4)CC3)c12 : Mtb growth Cornell: -9.314%; Mtb heat-shock: -19.31%
- [H][C@@]12CS(=O)(=O)C[C@]1([H])N(Cc1ccc(C)c(C)c1)CCN2C(=O)C1CCC1 : Mtb growth Cornell: -7.743%; Mtb heat-shock: -43.96%
- Cc1noc([C@@H]2C[C@H](NC(=O)Nc3cccc(F)c3)CN2C)n1 : Mtb growth Cornell: -28.65%; Mtb heat-shock: -28.41%
- CNC(=O)CN1CCOCC2(CCCN(CCc3ccccc3)C2)C1.O=C(O)C(F)(F)F.O=C(O)C(F)(F)F (stereo not drawn) : Mtb growth Cornell: 17.18%; Mtb heat-shock: -11.41%
- CS(=O)(=O)NCC1Cc2ccccc2O1 (stereo not drawn) : Mtb growth Cornell: -12.85%; Mtb heat-shock: 3.646%
- CN(C)C(=O)N1CCC2(CCCN(Cc3cnn(C)c3)C2)C1.O=C(O)C(F)(F)F (stereo not drawn) : Mtb growth Cornell: 1.099%; Mtb heat-shock: -9.776%
- Cc1nc(O)cc(CN2C[C@H](NC(=O)C3CCC3)[C@@H](C3CC3)C2)n1 : Mtb heat-shock: -111.3%

Repeated from the top, 3 entries:

compound,Mtb growth Cornell,Mtb heat-shock
COc1ccc(C2CCCN2S(=O)(=O)N(C)C)cc1 (stereo not drawn),-9.641,-0.3722
Cc1nnc(N2CCC(CS(N)(=O)=O)CC2)c(C#N)c1C,-,-6.552
CN(CCCNC(=O)c1ccc(C#N)cc1)CC(F)(F)F,5.867,-1.633

Data taken from ChEMBL document CHEMBL3988442, “University of Dundee, Small-Polar-MMV Screening Library” (2021).